The assay deals with T1, LpCat1 (lysophosphatidylcholine acyltransferase 1) (human) (UniProt Q8NF37).
T1 sequence: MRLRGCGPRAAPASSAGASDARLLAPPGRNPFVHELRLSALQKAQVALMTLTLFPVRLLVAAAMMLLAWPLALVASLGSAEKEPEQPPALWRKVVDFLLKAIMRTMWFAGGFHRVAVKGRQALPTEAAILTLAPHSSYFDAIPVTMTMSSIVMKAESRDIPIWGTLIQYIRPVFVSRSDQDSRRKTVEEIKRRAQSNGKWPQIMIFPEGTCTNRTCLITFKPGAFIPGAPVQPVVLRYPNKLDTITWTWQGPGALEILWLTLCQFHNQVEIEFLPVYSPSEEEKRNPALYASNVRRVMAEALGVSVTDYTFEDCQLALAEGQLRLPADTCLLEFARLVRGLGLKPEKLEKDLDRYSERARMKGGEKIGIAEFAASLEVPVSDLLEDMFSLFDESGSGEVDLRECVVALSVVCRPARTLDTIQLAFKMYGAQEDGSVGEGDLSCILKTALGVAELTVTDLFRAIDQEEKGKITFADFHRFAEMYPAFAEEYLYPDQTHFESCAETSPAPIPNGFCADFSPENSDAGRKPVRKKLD
In words: co-IP; lysates (IP lysis buffer) of HCC cells (Hep3B, Huh7) with LpCat1 overexpression or negative control vector incubated with anti-LpCat1 and anti-STAT1 antibodies separately overnight at 4 C; Protein A/G-agarose beads 2 h; western blotting. (A western blot detects proteins with antibodies after separation by electrophoresis.)

Chains of the proteins cited; added tags and fusions are not shown.
UniProt P42224: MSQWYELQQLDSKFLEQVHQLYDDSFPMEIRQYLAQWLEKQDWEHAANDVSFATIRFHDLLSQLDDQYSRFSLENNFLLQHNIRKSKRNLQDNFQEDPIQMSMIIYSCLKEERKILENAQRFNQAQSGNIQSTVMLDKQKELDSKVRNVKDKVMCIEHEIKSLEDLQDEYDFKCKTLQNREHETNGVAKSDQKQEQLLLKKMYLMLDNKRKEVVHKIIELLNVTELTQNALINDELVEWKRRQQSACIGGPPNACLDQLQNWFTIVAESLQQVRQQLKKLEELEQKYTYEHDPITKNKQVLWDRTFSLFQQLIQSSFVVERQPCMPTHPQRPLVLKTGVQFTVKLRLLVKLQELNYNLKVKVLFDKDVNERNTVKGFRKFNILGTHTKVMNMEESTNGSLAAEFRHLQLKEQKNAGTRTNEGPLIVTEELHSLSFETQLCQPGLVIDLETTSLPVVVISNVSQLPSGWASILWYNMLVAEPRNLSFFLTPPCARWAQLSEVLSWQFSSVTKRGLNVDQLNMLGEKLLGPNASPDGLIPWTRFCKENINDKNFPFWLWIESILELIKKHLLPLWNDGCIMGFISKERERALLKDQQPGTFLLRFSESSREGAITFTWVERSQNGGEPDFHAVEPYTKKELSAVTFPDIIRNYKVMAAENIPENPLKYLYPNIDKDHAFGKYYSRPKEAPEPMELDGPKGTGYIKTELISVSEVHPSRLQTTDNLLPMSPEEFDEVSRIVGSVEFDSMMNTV

Results are given in words; binding and its absence hold for the method and conditions named. Binding seen in cells or lysates may run through a third protein. Some results given as binding are weak or reduced against the parent protein; the word gives no strength.

This note sets out measurements from publication PMC8220817.

Take STAT1 (from UniProt P42224 1-750): the binding entry is on record as “binds”.
